Results published in PMC5997793.
No constants are given. Whether binding was seen depends on the method and setting. Binding seen in cells or lysates may run through a third protein. Some binding calls cover weakened binding; strength is not graded here.

The chains behind the UniProt entries cited, without tags or fusion partners. Where a name states a change or a piece, a line headed by the entry shows the natural chain unless it says otherwise.
UniProt Q15788: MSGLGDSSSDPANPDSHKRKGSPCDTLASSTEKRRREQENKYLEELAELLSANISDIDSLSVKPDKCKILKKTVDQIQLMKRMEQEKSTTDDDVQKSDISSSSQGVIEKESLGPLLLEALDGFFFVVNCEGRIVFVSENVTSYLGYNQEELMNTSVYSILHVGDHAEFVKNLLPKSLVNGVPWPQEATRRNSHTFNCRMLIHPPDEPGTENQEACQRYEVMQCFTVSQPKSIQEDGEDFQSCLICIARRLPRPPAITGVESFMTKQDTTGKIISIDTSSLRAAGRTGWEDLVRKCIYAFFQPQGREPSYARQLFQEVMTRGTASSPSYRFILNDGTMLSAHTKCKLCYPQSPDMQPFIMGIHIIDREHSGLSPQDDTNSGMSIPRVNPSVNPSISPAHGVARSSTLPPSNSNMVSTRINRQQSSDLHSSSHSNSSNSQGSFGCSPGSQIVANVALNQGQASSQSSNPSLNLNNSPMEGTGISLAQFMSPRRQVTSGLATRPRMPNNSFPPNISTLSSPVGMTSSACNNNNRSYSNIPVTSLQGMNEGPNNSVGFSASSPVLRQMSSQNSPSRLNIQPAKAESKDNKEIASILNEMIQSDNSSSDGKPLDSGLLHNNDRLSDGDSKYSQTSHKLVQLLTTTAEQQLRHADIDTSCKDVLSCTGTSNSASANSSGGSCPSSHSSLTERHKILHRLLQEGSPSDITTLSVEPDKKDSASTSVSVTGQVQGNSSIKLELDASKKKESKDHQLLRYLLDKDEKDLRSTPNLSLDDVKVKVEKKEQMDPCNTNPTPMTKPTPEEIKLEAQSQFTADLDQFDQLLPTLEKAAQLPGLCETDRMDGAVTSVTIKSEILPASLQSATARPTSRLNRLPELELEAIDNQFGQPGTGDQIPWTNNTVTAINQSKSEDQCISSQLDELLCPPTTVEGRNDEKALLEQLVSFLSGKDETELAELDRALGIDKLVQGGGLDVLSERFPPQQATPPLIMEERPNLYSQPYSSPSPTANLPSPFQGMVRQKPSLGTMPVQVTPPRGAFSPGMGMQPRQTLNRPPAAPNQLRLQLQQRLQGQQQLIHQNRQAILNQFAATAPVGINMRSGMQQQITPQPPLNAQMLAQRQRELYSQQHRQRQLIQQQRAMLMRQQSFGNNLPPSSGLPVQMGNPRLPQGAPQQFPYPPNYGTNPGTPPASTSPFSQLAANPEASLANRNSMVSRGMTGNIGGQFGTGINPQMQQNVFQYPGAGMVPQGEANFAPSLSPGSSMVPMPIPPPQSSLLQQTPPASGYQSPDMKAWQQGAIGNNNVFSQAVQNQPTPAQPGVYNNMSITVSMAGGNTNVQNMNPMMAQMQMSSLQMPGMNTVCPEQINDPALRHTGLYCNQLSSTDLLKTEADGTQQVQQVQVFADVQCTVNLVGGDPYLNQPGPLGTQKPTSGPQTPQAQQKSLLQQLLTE
UniProt Q04206: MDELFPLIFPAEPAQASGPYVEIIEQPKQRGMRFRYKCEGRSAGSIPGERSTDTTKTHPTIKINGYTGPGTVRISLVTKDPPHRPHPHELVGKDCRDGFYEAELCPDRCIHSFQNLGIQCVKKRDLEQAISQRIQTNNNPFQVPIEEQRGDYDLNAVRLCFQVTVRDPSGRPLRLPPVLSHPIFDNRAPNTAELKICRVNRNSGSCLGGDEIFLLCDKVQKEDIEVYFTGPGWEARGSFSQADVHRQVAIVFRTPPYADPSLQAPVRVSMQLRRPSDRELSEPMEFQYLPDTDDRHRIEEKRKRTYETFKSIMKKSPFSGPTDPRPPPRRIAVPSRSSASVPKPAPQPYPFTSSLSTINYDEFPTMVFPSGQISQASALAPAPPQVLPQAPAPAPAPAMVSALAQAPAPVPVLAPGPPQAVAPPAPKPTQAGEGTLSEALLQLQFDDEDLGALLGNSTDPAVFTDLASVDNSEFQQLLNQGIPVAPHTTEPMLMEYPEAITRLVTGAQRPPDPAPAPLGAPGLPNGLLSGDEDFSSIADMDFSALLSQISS

Molecular target: Steroid receptor coactivator-1 (human (endogenous in TPC-1)) (UniProt Q15788)
Test: co-IP; TPC-1 cells crosslinked with 1% formaldehyde at room temperature, sonicated; anti-SRC-1 mAb plus Protein G Sepharose added to the lysate, overnight at 4°C; washed three times; Western blot with anti-p65, anti-p50 and anti-SRC-1 mAbs

binding: binds
Substance: NF-kB (p65/p50) complex (from UniProt Q04206 1-551; P19838 1-433)
